One sequence from patent US5932483A (Northwestern University, priority 1996, dated 1999) can be followed below.

No end group written: not given here.

This data set is described as follows: peptide made by a vendor. The following applies: purification step.

In turn, LEQGENVFLQATLLC returned a step yield of 41%. The “final HPLC purity” value (analytical C18 reverse phase HPLC with UV detection, amino acid analysis) is listed as 80-90%.
